From publication PMC7819943, “Rice protein-binding microarrays: a tool to detect cis-acting elements near promoter regions in rice”
The other results are listed elsewhere or left out.

Sequences of proteins named here, by UniProt entry; tags and fusion partners are left off.
UniProt Q0JBA9, entry or part of it: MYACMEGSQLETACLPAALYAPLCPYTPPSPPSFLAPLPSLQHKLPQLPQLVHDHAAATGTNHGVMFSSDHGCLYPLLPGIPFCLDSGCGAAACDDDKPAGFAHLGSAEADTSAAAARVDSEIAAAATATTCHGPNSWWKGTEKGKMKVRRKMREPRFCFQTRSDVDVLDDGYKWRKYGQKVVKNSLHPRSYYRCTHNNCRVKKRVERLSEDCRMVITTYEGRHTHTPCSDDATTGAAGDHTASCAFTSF

Biological target: OsWRKY34 (Oryza sativa, UniProt Q0JBA9 1-250)
Assay: protein-binding microarray (RPBM); PBS, 2% BSA, 51.3 ng/ul salmon testes DNA, 50 uM zinc acetate, 200 nM TF, 25 C, 1 h; high values mean tight binding
Settings: protein: recombinant; tags: N-terminal polyhistidine and DsRed monomer fusion (pET32a); label: CyDye5-dUTP incorporated in the synthesized complementary strand; 3' TTTTT single-stranded linker to array surface; dsDNA, one strand shown
Outline: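 The binding signal is fluorescence intensity per feature, in arbitrary units, read on an Axon 4000B scanner. Polyhistidine- and DsRed-tagged transcription factors (N-terminal fusions) from E. coli BL21-CodonPlus were purified on Ni–NTA and applied at 200 nM for 1 h at 25 °C to a double-stranded, BSA-blocked custom Agilent array in buffer with 50 µM zinc acetate.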

Row | Sequence | binding signal
1 | ACGGTTTCGTTTTTGTAAAACGGCGCCCATTTTTTTCTCTCGGAGTCACCTAGTGCAG | 8200 fluorescence intensity (a.u.)
2 | CTTGTTTCAGTGTTGACATTGGTTATTTCTCAATTCATTCCGGAGTCACCTAGTGCAG | 9170 fluorescence intensity (a.u.)
3 | ACCGTTGCTAATTTGCTATATATGCGAGCTTGCTGATCGACGGAGTCACCTAGTGCAG | 8520 fluorescence intensity (a.u.)
4 | CCTCTTCGGCCTCGCCGCGGCCTCCGCCTTGTCCGCGTCCCGGAGTCACCTAGTGCAG | 8880 fluorescence intensity (a.u.)
5 | TAATAGTGTACGATCCGCCGGTCATCATCTTCCTTGACGGCGGAGTCACCTAGTGCAG | 8530 fluorescence intensity (a.u.)
6 | CGAATGGTGTATCTTTTAAATTGTGTGGTACCTAGTTGGGCGGAGTCACCTAGTGCAG | 8950 fluorescence intensity (a.u.)
7 | CCTTCGACCCGTCCCCTCACAAACGGCCGTTTCCCTCCCGCGGAGTCACCTAGTGCAG | 9230 fluorescence intensity (a.u.)
8 | GCAGTTTTTTTCTATGGACTCCTACCAACTCGGCCAACCACGGAGTCACCTAGTGCAG | 9220 fluorescence intensity (a.u.)
9 | CATTTTGACTGACGTGAATGGTGTATTTAGTTGTGGATATCGGAGTCACCTAGTGCAG | 9690 fluorescence intensity (a.u.)
10 | ATGTTTTATTCTCAACTTATTATCTACTCCCTCCATTTCACGGAGTCACCTAGTGCAG | 8620 fluorescence intensity (a.u.)
11 | TCCACAAGCATCTACCACCCACCACTCATCCGCAACCACACGGAGTCACCTAGTGCAG | 9500 fluorescence intensity (a.u.)
12 | GGCGGATGGGAGATCTGGCGGCGGGGTTGGAGGAGGAGGACGGAGTCACCTAGTGCAG | 10700 fluorescence intensity (a.u.)
13 | CATTATTTTGGTGTCATGTACATGTCCTCTCGCGATAACACGGAGTCACCTAGTGCAG | 11100 fluorescence intensity (a.u.)
14 | TGGCTCAAAATCATGCGCAAGCCGTAATTTCACCTTTCGCCGGAGTCACCTAGTGCAG | 9350 fluorescence intensity (a.u.)
15 | GGCGGCGGGGTGGTCGAGCGAGGGAGGAAGATTCGGAGCGCGGAGTCACCTAGTGCAG | 8120 fluorescence intensity (a.u.)
16 | GCGCGCGTGTTCTCCTCGATCTCTCCGATCATCATCGCGTCGGAGTCACCTAGTGCAG | 8460 fluorescence intensity (a.u.)
17 | CGACGACTCCGCCATCCACCCCGGGGACACCGCCCTCGTCCGGAGTCACCTAGTGCAG | 11200 fluorescence intensity (a.u.)
18 | ACCAAACCTTTTCCCTGTACGTCTACCGTCTACGTGCACCCGGAGTCACCTAGTGCAG | 13900 fluorescence intensity (a.u.)
19 | TGCGCGAGATTTCACTGTATCCCGTCGTGTCCCCGCGTGACGGAGTCACCTAGTGCAG | 8200 fluorescence intensity (a.u.)
20 | GTAGGAGATCACAAGGTTTCATTTTCACTTTTGTTTGCTACGGAGTCACCTAGTGCAG | 9010 fluorescence intensity (a.u.)
21 | CATGCAACTTTCAGAAACTCTTCATCTTCATCACACCTTTCGGAGTCACCTAGTGCAG | 8110 fluorescence intensity (a.u.)
22 | CACGGCTACCTTCTTTGCTGGTATCACTCAAGCAGCCCTACGGAGTCACCTAGTGCAG | 8200 fluorescence intensity (a.u.)
23 | CGCACACAGCTAGCTACTCGCTACTCCTCCTACATAGCCACGGAGTCACCTAGTGCAG | 8520 fluorescence intensity (a.u.)

Retrieved one by one from above:
Row | Sequence | binding signal
8 | GCAGTTTTTTTCTATGGACTCCTACCAACTCGGCCAACCACGGAGTCACCTAGTGCAG | 9220 fluorescence intensity (a.u.)
6 | CGAATGGTGTATCTTTTAAATTGTGTGGTACCTAGTTGGGCGGAGTCACCTAGTGCAG | 8950 fluorescence intensity (a.u.)
